US20210379012A1, “ANTIANGIOGENIC CHROMANE DERIVATIVE AND USES THEREOF” (Indiana University Research and Technology Corporation, priority 2018, published 2021)
At least one compound was matched to its structure with a doubt left.

System: human retinal endothelial cells (HRECs)
Assay: alamarBlue proliferation assay, HRECs
Format: cell-based
Experimental: EBM-2 and IMDM growth media were purchased from Lonza (Walkersville, Md., USA). RPMI and DMEM media were purchased from Thermo Scientific (Waltham, Mass., USA). ARPE19 cells were obtained from ATCC (Manassas, Va., USA). HRECs and Attachment Factor were purchased from Cell Systems (Kirkland, Wash., USA) and were used between passages 5 and 8. Endothelial Growth Medium (EGM-2) was prepared by mixing the contents of an EGM-2 “Bullet Kit” (Cat. no. CC-4176) with Endothelial Basal Medium (EBM) (Lonza). The EGM-2 “Bullet Kit” contains hydrocortisone, human fibroblast growth factor (hFGF), VEGF, R3-insulin like growth factor (R3-IGF-1), ascorbic acid, human epidermal growth factor (hEGF), gentamycin and heparin along with 2% fetal bovine serum (FBS). ARPE19 cells were grown in DEM medium containing 10% FBS and 1% penicillin-streptomycin (pen-strep). 92-1 cells were grown in RPMI medium containing 10% FBS and 1% pen-strep. Y79 cells were grown in RB medium (IMDM+10% FBS+55 μM β-mercaptoethanol+10 μg/mL Insulin+1% pen-strep). […]
The proliferation of cells was monitored by an alamarBlue based fluorescence assay. […] At the end of the incubation, 11.1 μL of alamarBlue reagent was added and 4 hours after, fluorescence readings were taken with excitation and emission wavelengths of 560 nm and 590 nm respectively. Data were analyzed and dose response curves generated using GraphPad Prism software (v. 6.0).

COc1ccc(CC2COc3cc(OC)c(OC)c(OC)c3C2)cc1O (stereo not shown) [compound (1)]
proliferation of HRECs (FIG. 1, in words): potently blocks proliferation
